The reference is the same well before dosing, and untreated signal decays as well.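 Fibroblast labels denote human fibroblasts, mainly primary ones from uterus (C12385, HUF), lung (H6013), bone (Hs27A), adrenal (HADF) and skin (WS1), plus mammary HMF and breast cancer-associated Hs343T. Cancer cells are basal-like or mesenchymal-like triple-negative breast cancer lines. A hit is a response shift exceeding 3x replicate standard deviation. The tissue of the other fibroblasts is not given here.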
Tested on: MDAMB436
Experiment: relative JC-1 red fluorescence (viability) vs pre-drug, coculture with fibroblast (fraction); higher = more viable cancer cells
Experimental: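 JC-1 labelled TNBC cells cocultured 1:1 (1,500 cells each) with CellTrace Violet stained primary or stromal fibroblasts in 384-well plates in FluoroBrite medium, treated with one of 42 anticancer drugs at 0.1, 1, 10 or 100 uM. JC-1 red fluorescence (mitochondrial integrity in cancer cells only) was read by plate reader every 8 h for 72 h. Values are normalised to each well's pre-drug value. The stock of one drug was tenfold lower, so its dose labels may be too high.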

CCCCCOC(=O)Nc1nc(=O)n([C@@H]2O[C@H](C)[C@@H](O)[C@H]2O)cc1F [Capecitabine]
relative JC-1 red fluorescence
Details | 8 h | 16 h | 24 h | 32 h | 40 h | 48 h | 56 h | 64 h | 72 h
10 µM, coculture fibroblast: C12385 | 0.823 | 0.7 | 0.674 | 0.583 | 0.539 | 0.51 | 0.478 | 0.455 | 0.449
10 µM, coculture fibroblast: H6013 | 0.8093 | 0.711 | 0.686 | 0.662 | 0.636 | 0.658 | 0.616 | 0.604 | 0.557
10 µM, coculture fibroblast: H6019 | 0.746 | 0.687 | 0.661 | 0.576 | 0.535 | 0.511 | 0.465 | 0.436 | 0.408
10 µM, coculture fibroblast: H6076 | 0.643 | 0.574 | 0.554 | 0.511 | 0.498 | 0.48 | 0.484 | 0.475 | 0.462
10 µM, coculture fibroblast: H6231 | 0.73 | 0.639 | 0.565 | 0.487 | 0.462 | 0.434 | 0.415 | 0.399 | 0.3792
10 µM, coculture fibroblast: HADF | 0.804 | 0.713 | 0.696 | 0.662 | 0.651 | 0.677 | 0.609 | 0.6 | 0.561
10 µM, coculture fibroblast: HCFa | 0.801 | 0.737 | 0.712 | 0.675 | 0.648 | 0.661 | 0.591 | 0.579 | 0.527
10 µM, coculture fibroblast: HCPF | 0.746 | 0.597 | 0.5832 | 0.507 | 0.485 | 0.444 | 0.428 | 0.411 | 0.399
10 µM, coculture fibroblast: HHSteC | 0.822 | 0.743 | 0.7201 | 0.6767 | 0.6715 | 0.683 | 0.62 | 0.604 | 0.549
10 µM, coculture fibroblast: HMF | 0.775 | 0.599 | 0.545 | 0.487 | 0.465 | 0.425 | 0.425 | 0.4071 | 0.40327
10 µM, coculture fibroblast: HPFa | 0.8801 | 0.7951 | 0.7605 | 0.7121 | 0.6906 | 0.6931 | 0.6171 | 0.5891 | 0.505
10 µM, coculture fibroblast: HUF | 0.852 | 0.7261 | 0.686 | 0.607 | 0.545 | 0.52 | 0.494 | 0.478 | 0.47
10 µM, coculture fibroblast: Hs5 | 0.7602 | 0.6273 | 0.606 | 0.554 | 0.535 | 0.49 | 0.502 | 0.469 | 0.457
10 µM, coculture fibroblast: Hs27A | 0.815 | 0.75 | 0.71 | 0.686 | 0.65 | 0.716 | 0.615 | 0.599 | 0.516
10 µM, coculture fibroblast: Hs343T | 0.653 | 0.608 | 0.59 | 0.546 | 0.525 | 0.482 | 0.482 | 0.478 | 0.47
10 µM, coculture fibroblast: WS1 | 0.763 | 0.679 | 0.64204 | 0.5503 | 0.5 | 0.4745 | 0.438 | 0.4079 | 0.3873
100 µM, coculture fibroblast: C12385 | 0.8406 | 0.73063 | 0.7216 | 0.6448 | 0.596 | 0.575 | 0.555 | 0.5328 | 0.523
100 µM, coculture fibroblast: H6013 | 0.891 | 0.776 | 0.7618 | 0.7467 | 0.732 | 0.7544 | 0.7062 | 0.693 | 0.651
100 µM, coculture fibroblast: H6019 | 0.77191 | 0.706 | 0.701 | 0.642 | 0.61 | 0.595 | 0.561 | 0.53 | 0.508
100 µM, coculture fibroblast: H6076 | 0.7904 | 0.591 | 0.6183 | 0.59133 | 0.574 | 0.561 | 0.574 | 0.576 | 0.575
100 µM, coculture fibroblast: H6231 | 0.77 | 0.697 | 0.649 | 0.588 | 0.55 | 0.519 | 0.504 | 0.488 | 0.467
100 µM, coculture fibroblast: HADF | 0.855 | 0.747 | 0.71357 | 0.67329 | 0.6485 | 0.6593 | 0.597 | 0.582 | 0.538
100 µM, coculture fibroblast: HCFa | 0.84 | 0.752 | 0.723 | 0.696 | 0.667 | 0.676 | 0.612 | 0.602 | 0.551
100 µM, coculture fibroblast: HCPF | 0.7782 | 0.627 | 0.6308 | 0.5766 | 0.544 | 0.5142 | 0.49863 | 0.481 | 0.468
100 µM, coculture fibroblast: HHSteC | 0.855 | 0.783 | 0.757 | 0.716 | 0.703 | 0.707 | 0.647 | 0.623 | 0.577
100 µM, coculture fibroblast: HMF | 0.797 | 0.6199 | 0.589 | 0.545 | 0.52 | 0.485 | 0.48 | 0.4733 | 0.462
100 µM, coculture fibroblast: HPFa | 0.901 | 0.807 | 0.785 | 0.744 | 0.729 | 0.734 | 0.653 | 0.619 | 0.544
100 µM, coculture fibroblast: HUF | 0.859 | 0.739 | 0.715 | 0.633 | 0.57 | 0.544 | 0.514 | 0.494 | 0.4882
100 µM, coculture fibroblast: Hs5 | 0.8364 | 0.689 | 0.6471 | 0.575 | 0.55 | 0.507 | 0.5 | 0.4704 | 0.4445
100 µM, coculture fibroblast: Hs27A | 0.888 | 0.838 | 0.8015 | 0.7785 | 0.7516 | 0.799 | 0.712 | 0.693 | 0.626
100 µM, coculture fibroblast: Hs343T | 0.803 | 0.614 | 0.614 | 0.574 | 0.559 | 0.532 | 0.529 | 0.515 | 0.515
100 µM, coculture fibroblast: WS1 | 0.789 | 0.733 | 0.73 | 0.664 | 0.631 | 0.615 | 0.604 | 0.577 | 0.562
